Values from PubChem BioAssay AID1259331 (Drosophila RNAi Screening Center, 2017).
Shown is one part, drawn at random, of about 3,100 deposited reagents. 126 of them (4.1%) were called active. 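Calls are per reagent; zinc was so toxic that few knock-downs lowered ATP further, so most hits raise ATP.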 Raw values are not corrected between plates. Unmarked entries are inactive. Reagents against one gene are numbered here. Names joined by + are all predicted targets of the reagent. Reagent sequences are not shown. Not given: the amount of reagent.

- Screen: 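Fly transmembrane-protein genes that affect zinc toxicity in cultured cells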 (primary screen)
- System: Drosophila S2R+ cells
- Knock-down reagent: long dsRNA against Drosophila genes
- Timing: 5 days (4 days knock-down, then 1 day zinc)
- Conditions: zinc chloride at 15 mM final level for 1 day
- Measured: 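Luminescent ATP assay standing in for viability; Z score is the mean over three replicate plates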
- Scale: mean Z score: higher = more ATP than other wells, better survival under zinc; ATP luminescence: higher = more ATP, more viable cells
- Active means: 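Hit when the absolute Z score is greater than 1.5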
- Meaning of the calls: active = hit, ATP up or down; inactive = not a hit

| target | dsRNA no. | mean Z score | ATP luminescence, replicate 1 | ATP luminescence, replicate 2 |
| --- | --- | --- | --- | --- |
| Ugalt (GeneID 31255) | 1 | -0.808 | 53207 | 52075 |
| Or19a + Or19b | 1 | 0.0229 | 49760 | 48406 |
| Or19a + Or19b | 2 | 0.0305 | 67048 | 54990 |
| CG7333 (GeneID 42334) | 1 | -0.276 | 34227 | 59963 |
| por (GeneID 32818) | 1 | 0.308 | 50189 | 50800 |
| por (GeneID 32818) | 2 | -0.43 | 51955 | 48234 |
| Kap-alpha1 (GeneID 40160) | 1 | -0.796 | 55162 | 50618 |
| Yip1d1 (GeneID 34696) | 1 | -0.632 | 42285 | 36634 |
| Rh4 (GeneID 39887) | 1 | 0.081 | 65314 | 55796 |
| CG7536 (GeneID 32786) | 1 | -0.417 | 41376 | 39713 |
| CG7536 (GeneID 32786) | 2 | -0.361 | 53155 | 58231 |
| Gr33a (GeneID 34641) | 1 | 0.126 | 54922 | 35736 |
| Gr33a (GeneID 34641) | 2 | -0.273 | 56979 | 54887 |
| kek1 (GeneID 34688) | 1 | 0.00658 | 53687 | 37125 |
| kek1 (GeneID 34688) | 2 | 0.154 | 49605 | 50333 |
| kek1 (GeneID 34688) | 3 | -0.283 | 45851 | 43314 |
| Adgf-A2 (GeneID 64879) | 1 | -0.433 | 59140 | 58591 |
| Adgf-A2 (GeneID 64879) | 2 | 0.265 | 57614 | 51715 |
| Or47b (GeneID 36212) | 1 | -0.121 | 79137 | 70201 |
| Or47b (GeneID 36212) | 2 | -0.312 | 55042 | 55213 |
| CG33090 (GeneID 34835) | 1 | -0.104 | 53653 | 55927 |
| CG33090 (GeneID 34835) | 2 | -0.19 | 55796 | 54870 |
| Tsp42Ea (GeneID 59178) | 1 | 0.527 | 95966 | 79755 |
| Tsp42Ea (GeneID 59178) | 2 | -0.325 | 78537 | 71231 |
| mthl8 (GeneID 38013) | 1 | -0.183 | 31125 | 30542 |
| mthl8 (GeneID 38013) | 2 | -0.551 | 65485 | 61970 |

The list goes on, starting with the last 4 of the part before.
| target | dsRNA no. | mean Z score | ATP luminescence, replicate 1 | ATP luminescence, replicate 2 |
| --- | --- | --- | --- | --- |
| Tsp42Ea (GeneID 59178) | 1 | 0.527 | 95966 | 79755 |
| Tsp42Ea (GeneID 59178) | 2 | -0.325 | 78537 | 71231 |
| mthl8 (GeneID 38013) | 1 | -0.183 | 31125 | 30542 |
| mthl8 (GeneID 38013) | 2 | -0.551 | 65485 | 61970 |
| brv2 (GeneID 39932) | 1 | -0.423 | 66857 | 53035 |
| brv2 (GeneID 39932) | 2 | -0.148 | 49503 | 43526 |
| Lkr (GeneID 38622) | 1 | -0.0237 | 72551 | 61198 |
| Lkr (GeneID 38622) | 2 | 0.556 | 61575 | 54230 |
| Gr36c (GeneID 117486) | 1 | -0.112 | 52144 | 35942 |
| Gr36c (GeneID 117486) | 2 | 0.475 | 63187 | 62861 |
| eag (GeneID 32428) | 1 | -0.329 | 1.17e5 | 67080 |
| eag (GeneID 32428) | 2 | 0.626 | 71694 | 81264 |
| eag (GeneID 32428) | 3 | 2.62 (active) | 1.18e5 | 90305 |
| Ir7f (GeneID 7354418) | 1 | 0.182 | 43639 | 43605 |
| GluRIIC (GeneID 33275) | 1 | -0.0381 | 56911 | 54373 |
| ppk24 (GeneID 43702) | 1 | 0.378 | 69224 | 75467 |
| ppk24 (GeneID 43702) | 2 | 0.0401 | 57295 | 56242 |
| S (GeneID 33281) | 1 | 0.00783 | 44480 | 64439 |
| S (GeneID 33281) | 2 | -0.0546 | 55788 | 41874 |
| Ulp1 (GeneID 32910) | 1 | 0.513 | 54333 | 52178 |
| Ulp1 (GeneID 32910) | 2 | 0.67 | 67886 | 64705 |
| Tom20 (GeneID 40189) | 1 | -0.358 | 27457 | 29753 |
